Results reported in PMC3991325.
No constants are given. Whether binding was seen depends on the method and setting. Binding seen in cells or lysates may run through a third protein. Some binding calls cover weakened binding; strength is not graded here. For some assays here: Tags and fused reporters may be left off the sequences shown.

Amino acid sequences for entries named in this document (tags omitted).
UniProt P35194: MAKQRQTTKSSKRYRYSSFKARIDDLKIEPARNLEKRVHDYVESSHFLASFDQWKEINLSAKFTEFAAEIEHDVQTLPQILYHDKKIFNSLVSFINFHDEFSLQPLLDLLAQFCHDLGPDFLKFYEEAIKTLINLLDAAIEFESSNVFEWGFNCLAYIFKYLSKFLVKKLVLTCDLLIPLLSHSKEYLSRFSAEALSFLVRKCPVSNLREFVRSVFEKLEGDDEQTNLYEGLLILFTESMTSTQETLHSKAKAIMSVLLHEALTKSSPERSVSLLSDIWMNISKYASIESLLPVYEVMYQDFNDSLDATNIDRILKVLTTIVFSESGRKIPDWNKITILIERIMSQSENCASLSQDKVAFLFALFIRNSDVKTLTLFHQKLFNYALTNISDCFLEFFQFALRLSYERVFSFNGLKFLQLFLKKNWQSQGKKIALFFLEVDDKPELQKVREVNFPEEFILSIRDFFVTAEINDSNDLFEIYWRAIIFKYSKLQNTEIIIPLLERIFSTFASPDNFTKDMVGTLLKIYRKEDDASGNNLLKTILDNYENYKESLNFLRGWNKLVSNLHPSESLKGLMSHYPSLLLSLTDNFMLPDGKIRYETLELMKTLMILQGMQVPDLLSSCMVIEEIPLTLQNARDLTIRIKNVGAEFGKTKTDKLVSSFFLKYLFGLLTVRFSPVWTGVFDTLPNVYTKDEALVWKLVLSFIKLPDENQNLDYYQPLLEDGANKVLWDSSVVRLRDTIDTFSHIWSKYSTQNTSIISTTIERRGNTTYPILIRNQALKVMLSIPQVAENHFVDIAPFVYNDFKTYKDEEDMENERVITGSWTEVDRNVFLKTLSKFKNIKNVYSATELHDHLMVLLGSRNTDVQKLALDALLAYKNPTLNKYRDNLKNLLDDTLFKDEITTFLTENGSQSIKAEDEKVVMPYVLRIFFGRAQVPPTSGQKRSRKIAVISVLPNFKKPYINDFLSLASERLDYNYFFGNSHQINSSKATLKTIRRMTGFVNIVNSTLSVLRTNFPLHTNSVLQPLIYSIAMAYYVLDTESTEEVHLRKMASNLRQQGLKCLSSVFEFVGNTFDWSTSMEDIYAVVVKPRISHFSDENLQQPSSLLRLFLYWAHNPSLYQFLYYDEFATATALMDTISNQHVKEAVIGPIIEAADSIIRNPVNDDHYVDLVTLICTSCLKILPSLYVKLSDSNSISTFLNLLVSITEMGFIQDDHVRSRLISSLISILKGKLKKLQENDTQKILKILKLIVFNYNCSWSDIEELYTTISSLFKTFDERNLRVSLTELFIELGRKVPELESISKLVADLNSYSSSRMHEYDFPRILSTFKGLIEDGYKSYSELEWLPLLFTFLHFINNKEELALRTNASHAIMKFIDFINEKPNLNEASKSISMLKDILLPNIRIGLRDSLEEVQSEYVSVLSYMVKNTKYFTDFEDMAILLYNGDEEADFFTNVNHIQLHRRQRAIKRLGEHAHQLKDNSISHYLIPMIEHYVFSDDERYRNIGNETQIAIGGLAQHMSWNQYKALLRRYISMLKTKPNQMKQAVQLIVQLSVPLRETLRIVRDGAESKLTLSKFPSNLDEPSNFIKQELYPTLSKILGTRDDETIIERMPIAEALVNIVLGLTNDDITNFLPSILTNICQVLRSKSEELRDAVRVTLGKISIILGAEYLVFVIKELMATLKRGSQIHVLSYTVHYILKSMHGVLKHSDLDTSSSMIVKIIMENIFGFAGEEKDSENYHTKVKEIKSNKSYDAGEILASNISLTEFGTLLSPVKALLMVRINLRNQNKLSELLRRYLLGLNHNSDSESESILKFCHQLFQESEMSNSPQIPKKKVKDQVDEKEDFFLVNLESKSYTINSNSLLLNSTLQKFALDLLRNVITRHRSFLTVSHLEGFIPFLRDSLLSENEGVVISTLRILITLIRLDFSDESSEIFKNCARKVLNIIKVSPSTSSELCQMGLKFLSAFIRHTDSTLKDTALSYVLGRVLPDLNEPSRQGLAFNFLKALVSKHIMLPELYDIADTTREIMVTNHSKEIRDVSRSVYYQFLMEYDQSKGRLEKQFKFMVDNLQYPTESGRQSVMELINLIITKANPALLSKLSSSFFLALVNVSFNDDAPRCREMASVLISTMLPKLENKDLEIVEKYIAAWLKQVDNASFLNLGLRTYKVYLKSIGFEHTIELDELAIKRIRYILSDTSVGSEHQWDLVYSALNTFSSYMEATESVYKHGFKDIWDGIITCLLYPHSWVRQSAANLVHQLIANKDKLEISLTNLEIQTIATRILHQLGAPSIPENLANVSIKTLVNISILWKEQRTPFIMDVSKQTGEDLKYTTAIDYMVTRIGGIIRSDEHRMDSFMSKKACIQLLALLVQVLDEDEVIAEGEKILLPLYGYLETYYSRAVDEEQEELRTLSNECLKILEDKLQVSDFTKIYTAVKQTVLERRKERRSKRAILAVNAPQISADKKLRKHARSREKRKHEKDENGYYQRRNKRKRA
UniProt P42945: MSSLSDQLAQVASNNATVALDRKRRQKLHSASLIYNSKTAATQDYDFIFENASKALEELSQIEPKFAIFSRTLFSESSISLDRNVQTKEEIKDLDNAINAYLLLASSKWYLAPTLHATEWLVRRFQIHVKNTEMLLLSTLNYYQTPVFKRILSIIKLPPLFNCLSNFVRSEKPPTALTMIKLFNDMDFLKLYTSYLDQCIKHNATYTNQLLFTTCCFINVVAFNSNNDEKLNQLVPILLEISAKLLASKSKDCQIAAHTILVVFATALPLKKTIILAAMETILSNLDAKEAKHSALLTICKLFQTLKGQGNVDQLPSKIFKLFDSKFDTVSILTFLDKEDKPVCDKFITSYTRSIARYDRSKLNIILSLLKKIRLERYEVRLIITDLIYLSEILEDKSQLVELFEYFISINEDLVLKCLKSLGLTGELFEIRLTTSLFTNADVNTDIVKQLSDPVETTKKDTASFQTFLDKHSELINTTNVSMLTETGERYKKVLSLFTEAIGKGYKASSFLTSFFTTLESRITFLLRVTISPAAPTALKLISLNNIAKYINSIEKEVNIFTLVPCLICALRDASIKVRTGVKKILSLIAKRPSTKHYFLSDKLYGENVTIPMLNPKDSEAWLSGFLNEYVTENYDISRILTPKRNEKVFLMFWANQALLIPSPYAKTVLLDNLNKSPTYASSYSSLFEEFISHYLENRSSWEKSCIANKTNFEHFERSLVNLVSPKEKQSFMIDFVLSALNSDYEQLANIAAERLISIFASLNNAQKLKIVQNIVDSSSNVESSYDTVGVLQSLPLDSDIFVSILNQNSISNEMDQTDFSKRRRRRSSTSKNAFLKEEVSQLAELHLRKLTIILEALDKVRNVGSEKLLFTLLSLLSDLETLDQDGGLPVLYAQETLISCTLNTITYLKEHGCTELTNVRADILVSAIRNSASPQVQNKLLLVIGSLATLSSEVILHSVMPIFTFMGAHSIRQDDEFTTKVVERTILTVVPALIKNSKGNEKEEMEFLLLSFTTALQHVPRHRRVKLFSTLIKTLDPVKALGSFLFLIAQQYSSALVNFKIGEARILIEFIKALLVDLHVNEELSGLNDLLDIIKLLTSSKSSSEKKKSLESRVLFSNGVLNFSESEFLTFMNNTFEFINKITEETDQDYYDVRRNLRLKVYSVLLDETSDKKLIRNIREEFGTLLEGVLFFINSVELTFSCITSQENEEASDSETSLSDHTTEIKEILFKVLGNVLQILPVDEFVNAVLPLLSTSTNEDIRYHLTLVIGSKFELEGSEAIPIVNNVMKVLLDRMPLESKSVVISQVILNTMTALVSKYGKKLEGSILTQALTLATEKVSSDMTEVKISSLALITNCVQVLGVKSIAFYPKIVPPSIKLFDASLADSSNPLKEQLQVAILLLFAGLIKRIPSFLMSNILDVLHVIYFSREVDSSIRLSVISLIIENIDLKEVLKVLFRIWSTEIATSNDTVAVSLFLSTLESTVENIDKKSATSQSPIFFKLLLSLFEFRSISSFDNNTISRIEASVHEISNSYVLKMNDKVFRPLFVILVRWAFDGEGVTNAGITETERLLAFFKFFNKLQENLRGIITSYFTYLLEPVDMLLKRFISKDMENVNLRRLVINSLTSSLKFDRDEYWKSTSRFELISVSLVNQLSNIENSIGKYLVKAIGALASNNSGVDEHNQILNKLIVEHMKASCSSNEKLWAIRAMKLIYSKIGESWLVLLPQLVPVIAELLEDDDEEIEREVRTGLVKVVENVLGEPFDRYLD
UniProt Q05022: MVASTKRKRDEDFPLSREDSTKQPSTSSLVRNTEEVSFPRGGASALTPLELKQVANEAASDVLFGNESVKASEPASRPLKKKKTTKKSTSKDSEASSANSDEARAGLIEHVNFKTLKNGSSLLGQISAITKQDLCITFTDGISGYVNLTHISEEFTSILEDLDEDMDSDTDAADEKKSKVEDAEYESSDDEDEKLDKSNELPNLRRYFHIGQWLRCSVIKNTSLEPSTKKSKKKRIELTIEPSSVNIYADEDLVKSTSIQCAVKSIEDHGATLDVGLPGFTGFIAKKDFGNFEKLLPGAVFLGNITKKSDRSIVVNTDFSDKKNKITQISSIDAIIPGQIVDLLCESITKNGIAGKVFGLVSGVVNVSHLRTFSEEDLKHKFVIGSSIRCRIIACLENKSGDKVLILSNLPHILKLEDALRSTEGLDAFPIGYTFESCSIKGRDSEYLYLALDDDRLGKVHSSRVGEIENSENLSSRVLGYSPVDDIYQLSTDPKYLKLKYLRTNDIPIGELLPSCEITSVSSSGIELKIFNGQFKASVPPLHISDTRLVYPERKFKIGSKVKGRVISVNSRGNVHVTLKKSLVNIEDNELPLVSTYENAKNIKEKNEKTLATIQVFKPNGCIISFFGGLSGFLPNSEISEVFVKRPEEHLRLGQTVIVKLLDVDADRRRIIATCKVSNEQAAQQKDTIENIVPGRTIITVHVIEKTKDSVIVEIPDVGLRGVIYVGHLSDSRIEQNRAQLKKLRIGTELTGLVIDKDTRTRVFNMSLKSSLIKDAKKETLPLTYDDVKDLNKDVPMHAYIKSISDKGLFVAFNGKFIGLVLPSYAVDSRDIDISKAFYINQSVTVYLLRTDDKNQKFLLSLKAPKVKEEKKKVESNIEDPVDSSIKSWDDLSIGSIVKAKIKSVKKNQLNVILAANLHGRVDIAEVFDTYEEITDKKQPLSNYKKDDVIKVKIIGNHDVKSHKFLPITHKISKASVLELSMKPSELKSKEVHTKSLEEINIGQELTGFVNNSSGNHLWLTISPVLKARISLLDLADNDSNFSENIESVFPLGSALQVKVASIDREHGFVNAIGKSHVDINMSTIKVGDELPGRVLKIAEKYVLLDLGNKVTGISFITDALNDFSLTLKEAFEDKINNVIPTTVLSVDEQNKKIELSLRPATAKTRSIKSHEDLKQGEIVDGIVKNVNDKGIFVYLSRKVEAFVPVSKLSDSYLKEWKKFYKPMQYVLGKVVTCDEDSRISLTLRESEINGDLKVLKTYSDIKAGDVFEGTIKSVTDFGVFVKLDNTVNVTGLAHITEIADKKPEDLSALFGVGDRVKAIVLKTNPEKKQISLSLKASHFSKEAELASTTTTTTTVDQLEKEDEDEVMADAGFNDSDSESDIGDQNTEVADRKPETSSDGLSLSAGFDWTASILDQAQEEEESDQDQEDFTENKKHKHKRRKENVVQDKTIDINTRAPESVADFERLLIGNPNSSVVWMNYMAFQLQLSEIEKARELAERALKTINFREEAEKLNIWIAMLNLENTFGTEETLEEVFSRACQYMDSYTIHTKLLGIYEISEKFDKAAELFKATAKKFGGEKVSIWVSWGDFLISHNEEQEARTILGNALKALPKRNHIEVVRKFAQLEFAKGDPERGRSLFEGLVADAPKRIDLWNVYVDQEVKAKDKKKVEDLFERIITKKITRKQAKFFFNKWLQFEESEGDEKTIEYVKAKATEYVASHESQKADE

Experiments:
Assay in all cases: co-IP; GFP-tagged proteins bound to anti-GFP beads at 500 mM NaCl, with and without prior treatment with RNase A + T1; Rrp5-HTP detected by western blotting with anti-TAP antibodies
[1] = molecular target: T1, GFP-tagged Kre33 (budding yeast) (UniProt P53914)
T1 sequence: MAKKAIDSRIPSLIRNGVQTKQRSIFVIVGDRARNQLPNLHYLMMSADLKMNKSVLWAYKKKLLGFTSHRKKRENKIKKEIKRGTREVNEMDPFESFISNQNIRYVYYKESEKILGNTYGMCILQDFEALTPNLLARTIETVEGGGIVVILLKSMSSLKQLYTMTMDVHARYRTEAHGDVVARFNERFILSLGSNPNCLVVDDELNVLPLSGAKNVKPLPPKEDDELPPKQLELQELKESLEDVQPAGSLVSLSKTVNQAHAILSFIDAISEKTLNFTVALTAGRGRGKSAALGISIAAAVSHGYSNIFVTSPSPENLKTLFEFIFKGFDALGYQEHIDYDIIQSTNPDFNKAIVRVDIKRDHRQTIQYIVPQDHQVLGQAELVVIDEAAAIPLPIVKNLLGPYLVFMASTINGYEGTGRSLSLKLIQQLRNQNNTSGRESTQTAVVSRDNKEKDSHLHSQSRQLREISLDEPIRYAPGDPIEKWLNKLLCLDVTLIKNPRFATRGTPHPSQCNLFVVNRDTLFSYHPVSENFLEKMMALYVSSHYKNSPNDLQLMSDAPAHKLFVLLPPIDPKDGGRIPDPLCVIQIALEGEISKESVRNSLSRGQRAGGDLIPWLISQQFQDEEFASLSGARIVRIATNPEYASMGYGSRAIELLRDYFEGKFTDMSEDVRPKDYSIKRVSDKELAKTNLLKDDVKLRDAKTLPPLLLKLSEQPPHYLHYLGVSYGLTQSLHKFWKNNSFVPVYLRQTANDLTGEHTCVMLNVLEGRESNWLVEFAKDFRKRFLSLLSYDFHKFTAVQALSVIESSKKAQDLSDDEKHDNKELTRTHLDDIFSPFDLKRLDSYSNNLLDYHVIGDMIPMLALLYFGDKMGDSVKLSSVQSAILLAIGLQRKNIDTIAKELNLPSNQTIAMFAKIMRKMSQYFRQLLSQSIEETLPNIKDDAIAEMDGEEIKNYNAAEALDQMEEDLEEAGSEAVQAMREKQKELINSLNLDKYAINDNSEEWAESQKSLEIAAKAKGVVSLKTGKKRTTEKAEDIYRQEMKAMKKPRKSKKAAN

[2] = molecular target: T2, GFP-tagged Nop58 (budding yeast) (UniProt Q12499)
T2 sequence: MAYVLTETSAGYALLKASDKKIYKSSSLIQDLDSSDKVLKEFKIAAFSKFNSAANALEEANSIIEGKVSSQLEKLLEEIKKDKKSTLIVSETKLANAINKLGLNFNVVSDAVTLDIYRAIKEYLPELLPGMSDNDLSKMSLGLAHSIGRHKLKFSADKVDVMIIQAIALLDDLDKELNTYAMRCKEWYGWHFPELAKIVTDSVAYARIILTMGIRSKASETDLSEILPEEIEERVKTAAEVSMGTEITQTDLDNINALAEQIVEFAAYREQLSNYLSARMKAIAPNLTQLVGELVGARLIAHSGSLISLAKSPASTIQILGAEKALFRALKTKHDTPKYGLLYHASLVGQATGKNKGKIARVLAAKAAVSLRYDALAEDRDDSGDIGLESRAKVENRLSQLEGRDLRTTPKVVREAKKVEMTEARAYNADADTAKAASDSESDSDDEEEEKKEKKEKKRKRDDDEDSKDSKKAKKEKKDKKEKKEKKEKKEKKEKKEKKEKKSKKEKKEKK

[3] = molecular target: GFP-tagged Utp20 (budding yeast) (UniProt P35194)
[4] = molecular target: GFP-tagged Utp10 (budding yeast) (UniProt P42945)
[5] = molecular target: T3, GFP-tagged Utp21 (budding yeast) (UniProt Q06078)
T3 sequence: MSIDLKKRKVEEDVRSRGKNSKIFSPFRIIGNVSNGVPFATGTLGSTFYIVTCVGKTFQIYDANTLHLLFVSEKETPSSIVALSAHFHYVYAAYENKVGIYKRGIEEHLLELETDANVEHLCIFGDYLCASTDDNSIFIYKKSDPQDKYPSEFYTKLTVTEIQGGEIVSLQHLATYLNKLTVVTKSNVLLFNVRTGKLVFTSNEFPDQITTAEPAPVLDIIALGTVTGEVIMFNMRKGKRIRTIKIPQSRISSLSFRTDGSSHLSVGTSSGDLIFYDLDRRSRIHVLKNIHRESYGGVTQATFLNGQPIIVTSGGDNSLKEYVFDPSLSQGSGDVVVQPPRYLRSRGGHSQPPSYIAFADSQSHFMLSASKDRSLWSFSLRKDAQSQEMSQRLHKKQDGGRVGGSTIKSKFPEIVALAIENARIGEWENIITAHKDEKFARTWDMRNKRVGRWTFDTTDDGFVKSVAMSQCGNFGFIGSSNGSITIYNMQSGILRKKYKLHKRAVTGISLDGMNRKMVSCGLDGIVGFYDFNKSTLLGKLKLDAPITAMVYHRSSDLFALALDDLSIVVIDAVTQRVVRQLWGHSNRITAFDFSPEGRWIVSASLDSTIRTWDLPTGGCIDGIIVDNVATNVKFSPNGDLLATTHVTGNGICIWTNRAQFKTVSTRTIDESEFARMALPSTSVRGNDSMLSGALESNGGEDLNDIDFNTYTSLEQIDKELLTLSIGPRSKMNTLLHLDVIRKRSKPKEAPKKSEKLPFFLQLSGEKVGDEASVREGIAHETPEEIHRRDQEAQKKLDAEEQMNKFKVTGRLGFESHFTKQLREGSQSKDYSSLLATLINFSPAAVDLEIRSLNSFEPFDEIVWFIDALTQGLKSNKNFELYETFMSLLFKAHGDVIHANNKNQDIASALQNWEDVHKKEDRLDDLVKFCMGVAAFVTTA

Measured: binding

Rrp5-HTP (from UniProt Q05022 1-1729)
binds: all assays above
